Assay [1] deals with Myc-TFII-I wild type (WT) (human) (UniProt P78347). The assay can be described thus: co-IP; HeLa Tet-On cells transfected with differentially tagged TFII-I plasmids; IgG IP and anti-Myc IP, immunoblot. A general note: Immunoblotting shows a protein as a band on a membrane.
The target of assay [2] is PCNA, endogenous (human (endogenous in U2OS)) (UniProt P12004). The assay can be described thus: co-IP; U2OS cells, untreated or UV 60 J/m^2, fixed with 0.25% formaldehyde; anti-PCNA IP or anti-TFII-I IP; siControl or siTFII-I with Myc-TFII-I plasmids; cross-links reversed, immunoblot.
Assay [3] concerns the target TFII-I, endogenous (human (endogenous in 293T and U2OS)) (UniProt P78347). The assay can be described thus: co-IP; lysates of parental 293T cells; anti-TFII-I or control IgG coupled to protein A beads; lysis buffer 50 mM Tris-HCl pH 8.0, 250 mM NaCl, 0.5% Triton X-100; blotted for Rev7 and TFII-I.
A further assay deals with GST-Rev7 (human) (UniProt Q9UI95). As to the kind of experiment: pull-down; 35S-labelled in vitro translated TFII-I or fragments incubated with bacterially expressed GST or GST-Rev7, 1 h at room temperature in 25 mM Tris-HCl pH 8.0, 2.7 mM KCl, 137 mM NaCl, 0.05% Tween-20; Glutathione-Sepharose; phosphor imager; only the target purified.

By UniProt entry, the sequences of proteins in these tests, tags left out.
UniProt P78347: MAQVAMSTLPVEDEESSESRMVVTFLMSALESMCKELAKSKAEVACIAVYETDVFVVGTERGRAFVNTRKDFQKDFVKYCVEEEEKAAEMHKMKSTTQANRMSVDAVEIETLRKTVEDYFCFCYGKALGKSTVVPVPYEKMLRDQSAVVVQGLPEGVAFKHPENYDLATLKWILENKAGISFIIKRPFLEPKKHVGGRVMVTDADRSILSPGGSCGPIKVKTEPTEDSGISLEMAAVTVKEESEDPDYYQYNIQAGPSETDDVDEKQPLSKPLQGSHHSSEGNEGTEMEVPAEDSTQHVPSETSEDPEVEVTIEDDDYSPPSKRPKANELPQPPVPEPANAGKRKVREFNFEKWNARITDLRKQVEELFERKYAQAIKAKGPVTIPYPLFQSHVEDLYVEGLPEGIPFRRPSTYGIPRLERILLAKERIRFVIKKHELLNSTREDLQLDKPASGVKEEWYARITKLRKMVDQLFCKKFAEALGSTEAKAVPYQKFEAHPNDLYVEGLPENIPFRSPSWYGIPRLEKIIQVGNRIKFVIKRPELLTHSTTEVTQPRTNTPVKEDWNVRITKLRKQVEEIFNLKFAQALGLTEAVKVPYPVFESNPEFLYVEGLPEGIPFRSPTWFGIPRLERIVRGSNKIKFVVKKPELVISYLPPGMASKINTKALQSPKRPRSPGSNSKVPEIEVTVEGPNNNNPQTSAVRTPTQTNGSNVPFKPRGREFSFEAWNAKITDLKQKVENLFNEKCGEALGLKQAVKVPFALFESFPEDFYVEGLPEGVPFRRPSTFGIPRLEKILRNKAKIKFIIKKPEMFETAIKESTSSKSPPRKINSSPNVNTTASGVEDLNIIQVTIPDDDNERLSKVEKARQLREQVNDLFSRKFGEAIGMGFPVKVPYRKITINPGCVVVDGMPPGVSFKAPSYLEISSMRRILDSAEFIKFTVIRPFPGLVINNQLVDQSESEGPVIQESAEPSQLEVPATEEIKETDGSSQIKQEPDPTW
UniProt P12004: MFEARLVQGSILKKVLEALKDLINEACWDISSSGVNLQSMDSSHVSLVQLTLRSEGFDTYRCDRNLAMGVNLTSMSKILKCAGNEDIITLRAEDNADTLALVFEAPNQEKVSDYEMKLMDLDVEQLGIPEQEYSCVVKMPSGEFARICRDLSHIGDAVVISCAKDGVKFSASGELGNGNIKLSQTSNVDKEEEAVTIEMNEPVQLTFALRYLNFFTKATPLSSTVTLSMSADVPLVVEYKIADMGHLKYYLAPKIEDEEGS
UniProt Q9UI95: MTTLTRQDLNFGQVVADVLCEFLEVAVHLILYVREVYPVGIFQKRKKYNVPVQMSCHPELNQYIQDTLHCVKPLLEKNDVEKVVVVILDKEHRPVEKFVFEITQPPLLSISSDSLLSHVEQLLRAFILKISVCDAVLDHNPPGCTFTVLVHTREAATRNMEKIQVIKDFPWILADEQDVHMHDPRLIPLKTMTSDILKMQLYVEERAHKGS

Results are given in words; binding and its absence hold for the method and conditions named. In cells and extracts the contact can be indirect. Some results given as binding are weak or reduced against the parent protein; the word gives no strength.

Take “Myc-TFII-I wild type (WT) (from UniProt P78347 1-998)”: the binding entry in assay [1] and in assay [2] was “binds” each time.
As for “Rev7, endogenous (from UniProt Q9UI95 1-211)”, the binding result in assay [3] is given as “binds”.
For the substance “TFII-I, endogenous (from UniProt P78347 1-998)”, in assay [2], the binding entry is “binds”.
As for “in vitro translated Myc-TFII-I (full-length) (from UniProt P78347 1-998)”, the binding result with GST-Rev7 (human) was “binds”.

For the origin of these results see article PMC4055408.
